Test results reported in patent US20090226956.

Chains of the proteins cited; added tags and fusions are not shown. A line that says so, or that is headed by a name, gives the form on record, which may keep a tag or linker.
UniProt Q01196, whole entry: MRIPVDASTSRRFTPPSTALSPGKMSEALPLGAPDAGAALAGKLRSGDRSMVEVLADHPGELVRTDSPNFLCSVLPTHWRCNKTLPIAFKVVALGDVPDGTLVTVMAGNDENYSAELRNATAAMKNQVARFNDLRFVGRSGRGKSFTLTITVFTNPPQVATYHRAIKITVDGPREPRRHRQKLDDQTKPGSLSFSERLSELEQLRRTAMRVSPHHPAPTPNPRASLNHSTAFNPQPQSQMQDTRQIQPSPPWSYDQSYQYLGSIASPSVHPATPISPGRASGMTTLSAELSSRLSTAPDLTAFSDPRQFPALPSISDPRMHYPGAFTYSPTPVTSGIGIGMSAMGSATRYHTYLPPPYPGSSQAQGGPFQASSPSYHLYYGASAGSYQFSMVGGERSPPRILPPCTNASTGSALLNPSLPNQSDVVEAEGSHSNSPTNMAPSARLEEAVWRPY
UniProt Q13950, other isoform, or with tags, fused parts or gaps: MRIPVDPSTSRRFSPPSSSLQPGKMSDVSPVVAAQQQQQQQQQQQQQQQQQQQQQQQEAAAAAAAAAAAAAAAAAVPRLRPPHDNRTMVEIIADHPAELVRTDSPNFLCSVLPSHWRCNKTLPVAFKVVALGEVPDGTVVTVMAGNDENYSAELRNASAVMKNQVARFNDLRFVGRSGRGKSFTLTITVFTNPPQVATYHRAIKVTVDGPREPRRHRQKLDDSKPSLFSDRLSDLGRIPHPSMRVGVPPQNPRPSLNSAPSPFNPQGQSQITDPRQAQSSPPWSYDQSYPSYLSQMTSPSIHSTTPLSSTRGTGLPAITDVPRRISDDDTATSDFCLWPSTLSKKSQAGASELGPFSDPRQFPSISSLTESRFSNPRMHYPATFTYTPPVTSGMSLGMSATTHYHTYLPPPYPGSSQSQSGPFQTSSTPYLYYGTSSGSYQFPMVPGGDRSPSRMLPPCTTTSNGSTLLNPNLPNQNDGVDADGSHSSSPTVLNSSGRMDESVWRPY
UniProt Q08775, other isoform, or with tags, fused parts or gaps: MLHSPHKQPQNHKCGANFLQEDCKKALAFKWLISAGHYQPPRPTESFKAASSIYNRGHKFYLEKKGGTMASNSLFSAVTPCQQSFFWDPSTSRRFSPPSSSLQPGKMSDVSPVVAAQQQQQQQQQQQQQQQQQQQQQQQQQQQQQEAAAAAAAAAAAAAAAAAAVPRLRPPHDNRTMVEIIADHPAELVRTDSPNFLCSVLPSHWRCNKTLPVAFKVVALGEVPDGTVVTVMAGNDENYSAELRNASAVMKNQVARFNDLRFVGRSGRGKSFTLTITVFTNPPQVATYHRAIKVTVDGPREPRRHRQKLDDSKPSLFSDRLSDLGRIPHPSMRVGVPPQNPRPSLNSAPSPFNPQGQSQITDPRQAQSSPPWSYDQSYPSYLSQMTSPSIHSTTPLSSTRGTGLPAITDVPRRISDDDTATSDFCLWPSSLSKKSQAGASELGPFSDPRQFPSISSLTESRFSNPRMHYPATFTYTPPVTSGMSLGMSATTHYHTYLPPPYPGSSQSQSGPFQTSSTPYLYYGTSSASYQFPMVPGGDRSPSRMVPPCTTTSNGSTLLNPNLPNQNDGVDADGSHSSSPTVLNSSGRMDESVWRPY

Assays:
Test in all cases: EMSA
Runx1 (Homo sapiens) = Runx1 (Homo sapiens) (UniProt Q01196); details: protein in an extract; protein details: endogenous, PC3 whole cell extract; label: 32P
Runx2 (Homo sapiens) = Runx2 (Homo sapiens) (UniProt Q13950); details: protein in an extract; protein details: endogenous, PC3 whole cell extract; label: 32P
Runx2 (Mus musculus) = Runx2 (Mus musculus) (UniProt Q08775); details: complex sensitive to native but not boiled Runx2 antibody; inhibited by GST-AR-DBD, not by GST or A573D mutant; 20 mM Hepes pH 7.5, 50 mM KCl, 1 mM MgCl2, on ice; protein in an extract; protein details: endogenous, MC3T3-E1 whole cell extract; label: 32P

Measured: binding result

AGCTGCAATCACCAACCACAGCA (double strand) [OSE2 probe]
binds: all assays above

Where cells or extracts were used, other partners may take part. For part of these data: Construct, isoform or probe ends are uncertain for at least one entry.
